Reference: the supplement of paper PMC10849652
Some of the results follow.

By UniProt entry, the sequences of proteins in these tests, tags left out. Where a name states a change or a piece, a line headed by the entry shows the natural chain unless it says otherwise.
UniProt P61018: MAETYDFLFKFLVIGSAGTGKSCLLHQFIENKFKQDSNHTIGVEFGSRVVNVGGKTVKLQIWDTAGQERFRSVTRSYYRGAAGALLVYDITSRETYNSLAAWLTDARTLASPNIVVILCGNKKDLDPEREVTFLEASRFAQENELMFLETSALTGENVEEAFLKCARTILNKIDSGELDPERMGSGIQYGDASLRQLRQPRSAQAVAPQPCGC
UniProt Q7Z6M1: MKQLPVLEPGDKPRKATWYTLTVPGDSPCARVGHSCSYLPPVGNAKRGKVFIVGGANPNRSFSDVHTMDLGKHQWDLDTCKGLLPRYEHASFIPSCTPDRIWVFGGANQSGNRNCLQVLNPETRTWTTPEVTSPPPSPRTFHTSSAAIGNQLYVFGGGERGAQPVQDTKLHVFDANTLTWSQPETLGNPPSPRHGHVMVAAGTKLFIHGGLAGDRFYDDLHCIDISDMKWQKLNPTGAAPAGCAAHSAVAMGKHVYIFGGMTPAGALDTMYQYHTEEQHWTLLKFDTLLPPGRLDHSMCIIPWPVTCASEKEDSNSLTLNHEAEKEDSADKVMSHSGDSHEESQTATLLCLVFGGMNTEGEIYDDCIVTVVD
UniProt Q8N0V3: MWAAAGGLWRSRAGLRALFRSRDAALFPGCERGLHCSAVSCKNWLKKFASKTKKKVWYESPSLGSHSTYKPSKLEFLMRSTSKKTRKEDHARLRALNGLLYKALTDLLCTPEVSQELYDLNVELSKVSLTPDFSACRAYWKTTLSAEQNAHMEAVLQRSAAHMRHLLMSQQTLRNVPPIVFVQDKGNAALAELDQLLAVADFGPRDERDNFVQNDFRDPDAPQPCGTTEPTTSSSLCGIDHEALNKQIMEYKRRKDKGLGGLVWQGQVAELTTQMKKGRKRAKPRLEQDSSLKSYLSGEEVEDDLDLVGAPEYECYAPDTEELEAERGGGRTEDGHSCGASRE
UniProt O00194: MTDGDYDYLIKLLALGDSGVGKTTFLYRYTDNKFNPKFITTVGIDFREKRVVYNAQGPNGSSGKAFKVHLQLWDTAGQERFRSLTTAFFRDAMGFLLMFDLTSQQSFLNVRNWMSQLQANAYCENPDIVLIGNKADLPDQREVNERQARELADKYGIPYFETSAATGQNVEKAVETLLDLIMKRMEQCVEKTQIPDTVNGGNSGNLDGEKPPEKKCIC
UniProt Q6VN20, whole entry, looked up: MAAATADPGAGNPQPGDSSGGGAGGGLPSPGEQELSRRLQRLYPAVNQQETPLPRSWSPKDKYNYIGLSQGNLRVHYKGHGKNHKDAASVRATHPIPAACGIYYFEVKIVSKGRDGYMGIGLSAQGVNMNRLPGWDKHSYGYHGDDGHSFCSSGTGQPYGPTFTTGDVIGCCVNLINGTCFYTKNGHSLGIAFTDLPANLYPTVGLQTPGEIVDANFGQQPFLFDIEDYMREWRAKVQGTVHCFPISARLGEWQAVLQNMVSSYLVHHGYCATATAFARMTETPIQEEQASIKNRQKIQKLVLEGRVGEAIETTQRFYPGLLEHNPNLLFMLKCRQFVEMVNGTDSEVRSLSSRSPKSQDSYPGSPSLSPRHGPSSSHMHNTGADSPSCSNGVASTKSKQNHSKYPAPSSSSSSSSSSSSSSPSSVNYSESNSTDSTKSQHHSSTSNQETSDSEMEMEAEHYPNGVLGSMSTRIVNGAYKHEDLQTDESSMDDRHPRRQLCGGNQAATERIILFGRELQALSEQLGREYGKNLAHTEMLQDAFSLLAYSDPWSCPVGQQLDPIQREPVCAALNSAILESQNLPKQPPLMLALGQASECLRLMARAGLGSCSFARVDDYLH
UniProt Q5HYI8: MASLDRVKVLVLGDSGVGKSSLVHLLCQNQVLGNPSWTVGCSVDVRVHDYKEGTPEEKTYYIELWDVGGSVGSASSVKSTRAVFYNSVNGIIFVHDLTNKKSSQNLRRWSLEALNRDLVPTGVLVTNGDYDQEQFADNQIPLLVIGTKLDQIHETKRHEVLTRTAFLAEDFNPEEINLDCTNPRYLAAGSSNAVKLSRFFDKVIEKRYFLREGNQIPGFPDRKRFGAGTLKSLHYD
UniProt Q8TEU7: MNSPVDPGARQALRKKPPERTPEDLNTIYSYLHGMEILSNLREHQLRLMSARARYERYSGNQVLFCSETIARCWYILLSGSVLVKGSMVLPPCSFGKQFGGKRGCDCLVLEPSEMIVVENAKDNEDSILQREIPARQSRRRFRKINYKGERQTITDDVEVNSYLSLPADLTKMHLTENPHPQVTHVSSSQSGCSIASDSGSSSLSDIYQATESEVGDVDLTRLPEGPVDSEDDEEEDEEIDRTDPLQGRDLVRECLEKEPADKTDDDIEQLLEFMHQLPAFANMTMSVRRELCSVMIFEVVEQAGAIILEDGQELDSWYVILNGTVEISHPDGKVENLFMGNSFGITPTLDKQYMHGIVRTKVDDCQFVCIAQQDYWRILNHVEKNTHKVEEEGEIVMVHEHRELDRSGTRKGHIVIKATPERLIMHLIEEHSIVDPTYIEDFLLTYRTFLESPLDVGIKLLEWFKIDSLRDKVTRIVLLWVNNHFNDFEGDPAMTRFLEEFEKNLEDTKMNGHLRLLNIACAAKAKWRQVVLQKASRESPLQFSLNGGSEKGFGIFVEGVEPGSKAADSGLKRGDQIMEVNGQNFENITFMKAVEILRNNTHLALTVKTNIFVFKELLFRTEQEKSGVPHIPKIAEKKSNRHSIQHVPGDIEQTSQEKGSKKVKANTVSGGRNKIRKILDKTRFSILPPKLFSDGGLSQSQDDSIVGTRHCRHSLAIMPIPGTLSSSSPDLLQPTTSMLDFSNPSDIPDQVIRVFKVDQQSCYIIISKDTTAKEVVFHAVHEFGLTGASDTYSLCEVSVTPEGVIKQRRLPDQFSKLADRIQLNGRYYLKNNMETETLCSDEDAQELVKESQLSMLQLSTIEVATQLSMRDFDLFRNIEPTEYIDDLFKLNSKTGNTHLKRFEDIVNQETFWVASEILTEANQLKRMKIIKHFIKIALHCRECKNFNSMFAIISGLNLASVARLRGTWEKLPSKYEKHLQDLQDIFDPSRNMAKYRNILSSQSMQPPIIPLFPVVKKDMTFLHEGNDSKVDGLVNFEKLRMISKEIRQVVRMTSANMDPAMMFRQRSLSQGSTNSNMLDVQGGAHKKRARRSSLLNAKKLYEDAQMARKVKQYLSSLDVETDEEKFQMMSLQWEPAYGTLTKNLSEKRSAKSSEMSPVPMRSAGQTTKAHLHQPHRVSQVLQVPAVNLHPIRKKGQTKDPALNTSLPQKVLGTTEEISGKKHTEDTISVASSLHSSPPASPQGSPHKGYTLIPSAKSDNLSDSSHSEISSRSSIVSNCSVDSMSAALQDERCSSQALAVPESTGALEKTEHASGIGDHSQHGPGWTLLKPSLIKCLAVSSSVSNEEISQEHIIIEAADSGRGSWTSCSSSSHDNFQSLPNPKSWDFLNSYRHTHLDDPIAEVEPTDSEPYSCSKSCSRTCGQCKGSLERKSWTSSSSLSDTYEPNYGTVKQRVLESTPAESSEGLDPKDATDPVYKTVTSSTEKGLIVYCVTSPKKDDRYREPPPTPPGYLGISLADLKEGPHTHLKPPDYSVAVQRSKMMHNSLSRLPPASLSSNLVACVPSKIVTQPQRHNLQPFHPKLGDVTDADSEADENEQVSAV
UniProt Q9HD47: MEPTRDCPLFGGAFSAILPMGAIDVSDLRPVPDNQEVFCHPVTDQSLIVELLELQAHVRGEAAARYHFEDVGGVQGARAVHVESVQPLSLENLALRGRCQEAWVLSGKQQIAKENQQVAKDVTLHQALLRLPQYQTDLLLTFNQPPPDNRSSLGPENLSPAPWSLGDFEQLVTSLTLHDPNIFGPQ
UniProt P20336: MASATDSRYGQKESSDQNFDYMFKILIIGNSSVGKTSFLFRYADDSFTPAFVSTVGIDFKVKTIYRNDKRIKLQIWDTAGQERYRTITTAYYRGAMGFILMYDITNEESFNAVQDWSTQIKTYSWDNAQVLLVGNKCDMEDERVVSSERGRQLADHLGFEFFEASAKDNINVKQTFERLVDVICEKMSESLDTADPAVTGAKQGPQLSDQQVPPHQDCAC
UniProt Q15907: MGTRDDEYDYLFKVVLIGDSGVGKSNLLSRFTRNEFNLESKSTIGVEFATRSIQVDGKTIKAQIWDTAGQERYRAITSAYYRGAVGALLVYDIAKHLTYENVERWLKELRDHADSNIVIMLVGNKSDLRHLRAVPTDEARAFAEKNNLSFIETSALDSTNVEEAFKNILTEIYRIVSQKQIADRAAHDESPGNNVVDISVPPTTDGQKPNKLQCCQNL
UniProt Q9UJ41, whole entry, looked up: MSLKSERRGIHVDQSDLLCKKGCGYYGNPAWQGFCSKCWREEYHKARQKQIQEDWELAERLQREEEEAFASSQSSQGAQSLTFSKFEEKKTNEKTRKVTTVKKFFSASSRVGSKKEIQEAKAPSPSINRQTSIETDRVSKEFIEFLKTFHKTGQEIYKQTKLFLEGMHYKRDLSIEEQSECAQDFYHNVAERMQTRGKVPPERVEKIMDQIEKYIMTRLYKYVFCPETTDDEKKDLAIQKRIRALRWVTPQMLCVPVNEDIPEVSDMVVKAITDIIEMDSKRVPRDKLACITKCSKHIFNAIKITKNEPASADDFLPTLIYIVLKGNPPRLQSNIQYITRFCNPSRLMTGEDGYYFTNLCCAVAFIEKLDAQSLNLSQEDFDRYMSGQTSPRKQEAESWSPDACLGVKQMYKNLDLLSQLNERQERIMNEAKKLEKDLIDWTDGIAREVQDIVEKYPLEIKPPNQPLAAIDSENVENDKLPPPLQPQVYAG
UniProt O75771: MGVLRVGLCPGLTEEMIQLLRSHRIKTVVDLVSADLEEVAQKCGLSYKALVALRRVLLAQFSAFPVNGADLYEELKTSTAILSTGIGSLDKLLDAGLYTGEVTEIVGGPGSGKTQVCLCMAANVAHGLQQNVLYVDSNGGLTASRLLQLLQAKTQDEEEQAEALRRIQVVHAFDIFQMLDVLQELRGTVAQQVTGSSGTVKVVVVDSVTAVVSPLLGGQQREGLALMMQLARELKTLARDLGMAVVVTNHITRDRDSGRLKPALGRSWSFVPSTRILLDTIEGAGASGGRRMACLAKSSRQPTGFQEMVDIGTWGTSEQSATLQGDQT
UniProt P61019: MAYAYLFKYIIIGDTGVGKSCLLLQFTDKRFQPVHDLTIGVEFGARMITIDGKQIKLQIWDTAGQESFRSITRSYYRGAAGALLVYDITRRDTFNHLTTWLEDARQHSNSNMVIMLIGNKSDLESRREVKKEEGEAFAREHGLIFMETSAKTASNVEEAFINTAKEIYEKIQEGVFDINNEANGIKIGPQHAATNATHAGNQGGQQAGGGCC
UniProt Q9H2T7: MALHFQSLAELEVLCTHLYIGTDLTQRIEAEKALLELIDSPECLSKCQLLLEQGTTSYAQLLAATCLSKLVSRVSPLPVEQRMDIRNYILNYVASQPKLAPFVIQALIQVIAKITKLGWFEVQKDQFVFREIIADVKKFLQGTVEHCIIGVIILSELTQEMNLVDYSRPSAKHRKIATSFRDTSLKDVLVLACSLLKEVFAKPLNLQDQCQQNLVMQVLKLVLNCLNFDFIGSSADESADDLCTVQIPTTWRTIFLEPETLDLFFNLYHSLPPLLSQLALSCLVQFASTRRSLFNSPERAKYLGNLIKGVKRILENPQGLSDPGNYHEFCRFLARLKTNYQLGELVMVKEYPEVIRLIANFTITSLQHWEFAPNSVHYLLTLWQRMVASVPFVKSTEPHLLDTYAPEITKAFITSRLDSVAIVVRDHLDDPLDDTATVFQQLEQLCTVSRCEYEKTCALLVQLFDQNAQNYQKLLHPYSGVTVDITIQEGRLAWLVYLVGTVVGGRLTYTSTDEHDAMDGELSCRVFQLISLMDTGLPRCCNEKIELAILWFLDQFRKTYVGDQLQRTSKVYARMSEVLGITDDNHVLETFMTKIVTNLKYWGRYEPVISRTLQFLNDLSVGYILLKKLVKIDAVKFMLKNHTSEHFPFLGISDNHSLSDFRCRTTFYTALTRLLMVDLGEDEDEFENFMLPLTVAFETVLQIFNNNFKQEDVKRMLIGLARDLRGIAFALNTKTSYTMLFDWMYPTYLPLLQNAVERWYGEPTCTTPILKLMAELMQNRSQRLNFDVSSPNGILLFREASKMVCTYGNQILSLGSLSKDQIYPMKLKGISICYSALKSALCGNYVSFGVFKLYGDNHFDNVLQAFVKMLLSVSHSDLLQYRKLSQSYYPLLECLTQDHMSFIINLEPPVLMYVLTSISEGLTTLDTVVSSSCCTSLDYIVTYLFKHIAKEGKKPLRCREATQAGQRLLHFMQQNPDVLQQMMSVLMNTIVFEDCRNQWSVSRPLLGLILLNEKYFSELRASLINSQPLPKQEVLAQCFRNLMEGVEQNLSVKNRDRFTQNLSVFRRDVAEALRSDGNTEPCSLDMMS
UniProt P98179: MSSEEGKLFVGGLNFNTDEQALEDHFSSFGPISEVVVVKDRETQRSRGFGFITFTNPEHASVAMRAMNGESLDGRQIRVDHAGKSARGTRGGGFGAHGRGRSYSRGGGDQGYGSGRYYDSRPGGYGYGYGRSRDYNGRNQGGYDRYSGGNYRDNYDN

What follows are targets tested with c1cn2cc(-c3ccc4cn[nH]c4c3)nc(Nc3ccc(N4CCOCC4)cc3)c2n1 [entospletinib] (assay: log2 fold change, soluble protein after heating vs DMSO (PISA); higher = thermal stabilisation; K562 cells, 10 uM, 30 min; active = over 0.2 and 3.5 SD of the protein, either way, in both replicates (recomputed)).
In short: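 Values are thermal stability changes relative to control samples and are taken from duplicates. They are stated as log2 fold changes. Before quantification by TMTpro 16plex LC-MS/MS with equalised channel sums, K562 cells at 2×10^6 cells/mL were treated with 10 μM compound for 30 min, heated in aliquots for 3 min across 48°C-58°C, pooled, extracted in PBS with 0.5% NP-40 at 4°C, and centrifuged at 21,000xg for 90 min to give the soluble supernatant.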

log2 fold change, inactive:
RAB4B isoform 2 (UniProt P61018) -0.036
RAPGEF5, A0A590UJR0 -0.125
RABEPK (UniProt Q7Z6M1) 0.017
RAB10 (UniProt P61026) -0.002
RBFA (UniProt Q8N0V3) 0.014
RAB27B (UniProt O00194) 0.05
RANBP10 (UniProt Q6VN20) 0.017
RABL3 (UniProt Q5HYI8) -0.024
RAPGEF6 isoform 4 (UniProt Q8TEU7) 0.146
RAP2A (UniProt P10114) 0.049
RANGRF (UniProt Q9HD47) 0.062
RAB3A (UniProt P20336) 0.022
RAB1B (UniProt Q9H0U4) -0.025
RAB11B (UniProt Q15907) -0.003
RABGEF1 isoform 3 (UniProt Q9UJ41) 0.037
RAB18 (UniProt H0Y6T8) 0.013
RAD51D (UniProt O75771) -0.05
RANBP3 (UniProt Q9H6Z4) -0.023
RASA1 (UniProt P20936) -0.029
RACK1 (UniProt D6RHH4) 0.296
RAB2A (UniProt P61019) 0.005
RANBP17 (UniProt Q9H2T7) -0.089
RBM3 (UniProt P98179) 0.029

2 entries drawn at random from the list so far, as already listed:
log2 fold change, inactive:
RAD51D (UniProt O75771) -0.05
RAP2A (UniProt P10114) 0.049
